Paper doi:10.1101/2024.08.19.608523 (bioRxiv, 2024)
Results are given in words; binding and its absence hold for the method and conditions named.

Chains of the proteins cited; added tags and fusions are not shown. Lines headed by an entry give the natural chain unless they say otherwise; changes in a name come on top. Residues count along the entry.
UniProt P11862, 1-276, stated change not applied: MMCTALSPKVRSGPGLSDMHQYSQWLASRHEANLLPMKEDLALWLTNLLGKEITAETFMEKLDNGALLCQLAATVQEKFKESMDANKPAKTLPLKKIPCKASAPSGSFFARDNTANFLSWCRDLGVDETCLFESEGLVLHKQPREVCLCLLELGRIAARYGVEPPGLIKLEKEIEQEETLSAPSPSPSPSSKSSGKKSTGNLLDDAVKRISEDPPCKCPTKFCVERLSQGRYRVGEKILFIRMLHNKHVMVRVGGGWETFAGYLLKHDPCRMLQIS
UniProt P11862, 198-276, stated change not applied: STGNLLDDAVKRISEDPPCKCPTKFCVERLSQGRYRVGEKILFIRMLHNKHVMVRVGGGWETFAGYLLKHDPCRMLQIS

Legend:
[1] = target: GAS2-GARΔC (residues 198-276) (mouse) (UniProt P11862); assay: SEC
[2] = target: GAS2ΔC (residues 1-276) (mouse) (UniProt P11862); assay: SEC

For “GAS2-GARΔC (residues 198-276) (from UniProt P11862 198-276) (domain or fragment)”, the binding [1] was “no binding”.

With “GAS2ΔC (residues 1-276) (from UniProt P11862 1-276) (domain or fragment)” the binding [2] was “no binding”.
